Test results: patent publication US20040091907A1
These are yes or no findings as the source states them, for the method shown. Binding seen in cells or lysates may run through a third protein. Some entries that bind do so weakly or less than the wild type. Tags and fused reporters may be left off the sequences shown.

Amino acid sequences for entries named in this document (tags omitted). A change or cut given only in a name is not applied to a line headed by its entry. Chains listed by the source or under a name are the forms on record and can include a tag or linker. Residues count along the entry.
UniProt O96013: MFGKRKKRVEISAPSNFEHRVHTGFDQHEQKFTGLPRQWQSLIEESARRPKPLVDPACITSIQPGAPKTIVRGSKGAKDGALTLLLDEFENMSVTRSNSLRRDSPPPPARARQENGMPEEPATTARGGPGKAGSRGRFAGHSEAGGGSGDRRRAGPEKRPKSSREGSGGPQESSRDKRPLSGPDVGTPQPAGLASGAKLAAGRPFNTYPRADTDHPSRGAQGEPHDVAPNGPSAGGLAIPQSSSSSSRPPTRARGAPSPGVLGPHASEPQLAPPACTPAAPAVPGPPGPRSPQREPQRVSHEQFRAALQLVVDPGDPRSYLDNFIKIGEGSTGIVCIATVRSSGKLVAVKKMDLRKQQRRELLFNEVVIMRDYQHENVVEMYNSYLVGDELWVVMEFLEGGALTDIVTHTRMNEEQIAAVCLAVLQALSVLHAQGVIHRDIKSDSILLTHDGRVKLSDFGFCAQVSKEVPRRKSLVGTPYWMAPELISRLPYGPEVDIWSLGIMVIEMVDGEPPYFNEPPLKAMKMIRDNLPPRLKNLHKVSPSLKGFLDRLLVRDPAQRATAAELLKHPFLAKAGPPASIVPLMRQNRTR
myc-tagged PAK4 kinase domain (amino acids 291-591): residues 291-591 of O96013

Experiments:
[1] = target: full-length myc-tagged PAK4 protein (human) (UniProt O96013); assay: GST pull-down from 293T cell extracts, Western blot with anti-myc
[2] = target: full-length myc-tagged PAK4 protein (human) (UniProt O96013); assay: GST pull-down on glutathione beads from 293T lysates, myc immunoblot
[3] = target: myc-tagged PAK4 kinase domain (amino acids 291-591) (human) (UniProt O96013); assay: as above

binding [1]: binds | binding [2]: binds | binding [3]: binds
B1: GST-GEF-H1S (aa763-921) (protein, not shown: a dimerising Fc or GST)
chain: LRESEQARALLEREAEEARRQLAALGQTEPLPAEAPWARRPVDPRRRSLPAGDALYLSFNPPQPSRGTDRLDLPVTTRSVHRNFEDRERQELGSPEERLQDSSDPDTGSEEEGSSRLSPPHSPRGETLAETWTRDFTRMQDIPEETESRDGEAVASES
